# Some of the results follow. Residues, ends and D or L forms follow the SMILES beside them. *: point of attachment. Cbz = O=C(OCc1ccccc1)*
# Sequences of proteins named here, by UniProt entry; tags and fusion partners are left off. A change or cut given only in a name is not applied to a line headed by its entry.
# UniProt Q9P086: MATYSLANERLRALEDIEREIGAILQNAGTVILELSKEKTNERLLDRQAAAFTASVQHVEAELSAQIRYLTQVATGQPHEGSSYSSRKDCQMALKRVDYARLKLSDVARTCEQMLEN
# UniProt Q7Z7M0: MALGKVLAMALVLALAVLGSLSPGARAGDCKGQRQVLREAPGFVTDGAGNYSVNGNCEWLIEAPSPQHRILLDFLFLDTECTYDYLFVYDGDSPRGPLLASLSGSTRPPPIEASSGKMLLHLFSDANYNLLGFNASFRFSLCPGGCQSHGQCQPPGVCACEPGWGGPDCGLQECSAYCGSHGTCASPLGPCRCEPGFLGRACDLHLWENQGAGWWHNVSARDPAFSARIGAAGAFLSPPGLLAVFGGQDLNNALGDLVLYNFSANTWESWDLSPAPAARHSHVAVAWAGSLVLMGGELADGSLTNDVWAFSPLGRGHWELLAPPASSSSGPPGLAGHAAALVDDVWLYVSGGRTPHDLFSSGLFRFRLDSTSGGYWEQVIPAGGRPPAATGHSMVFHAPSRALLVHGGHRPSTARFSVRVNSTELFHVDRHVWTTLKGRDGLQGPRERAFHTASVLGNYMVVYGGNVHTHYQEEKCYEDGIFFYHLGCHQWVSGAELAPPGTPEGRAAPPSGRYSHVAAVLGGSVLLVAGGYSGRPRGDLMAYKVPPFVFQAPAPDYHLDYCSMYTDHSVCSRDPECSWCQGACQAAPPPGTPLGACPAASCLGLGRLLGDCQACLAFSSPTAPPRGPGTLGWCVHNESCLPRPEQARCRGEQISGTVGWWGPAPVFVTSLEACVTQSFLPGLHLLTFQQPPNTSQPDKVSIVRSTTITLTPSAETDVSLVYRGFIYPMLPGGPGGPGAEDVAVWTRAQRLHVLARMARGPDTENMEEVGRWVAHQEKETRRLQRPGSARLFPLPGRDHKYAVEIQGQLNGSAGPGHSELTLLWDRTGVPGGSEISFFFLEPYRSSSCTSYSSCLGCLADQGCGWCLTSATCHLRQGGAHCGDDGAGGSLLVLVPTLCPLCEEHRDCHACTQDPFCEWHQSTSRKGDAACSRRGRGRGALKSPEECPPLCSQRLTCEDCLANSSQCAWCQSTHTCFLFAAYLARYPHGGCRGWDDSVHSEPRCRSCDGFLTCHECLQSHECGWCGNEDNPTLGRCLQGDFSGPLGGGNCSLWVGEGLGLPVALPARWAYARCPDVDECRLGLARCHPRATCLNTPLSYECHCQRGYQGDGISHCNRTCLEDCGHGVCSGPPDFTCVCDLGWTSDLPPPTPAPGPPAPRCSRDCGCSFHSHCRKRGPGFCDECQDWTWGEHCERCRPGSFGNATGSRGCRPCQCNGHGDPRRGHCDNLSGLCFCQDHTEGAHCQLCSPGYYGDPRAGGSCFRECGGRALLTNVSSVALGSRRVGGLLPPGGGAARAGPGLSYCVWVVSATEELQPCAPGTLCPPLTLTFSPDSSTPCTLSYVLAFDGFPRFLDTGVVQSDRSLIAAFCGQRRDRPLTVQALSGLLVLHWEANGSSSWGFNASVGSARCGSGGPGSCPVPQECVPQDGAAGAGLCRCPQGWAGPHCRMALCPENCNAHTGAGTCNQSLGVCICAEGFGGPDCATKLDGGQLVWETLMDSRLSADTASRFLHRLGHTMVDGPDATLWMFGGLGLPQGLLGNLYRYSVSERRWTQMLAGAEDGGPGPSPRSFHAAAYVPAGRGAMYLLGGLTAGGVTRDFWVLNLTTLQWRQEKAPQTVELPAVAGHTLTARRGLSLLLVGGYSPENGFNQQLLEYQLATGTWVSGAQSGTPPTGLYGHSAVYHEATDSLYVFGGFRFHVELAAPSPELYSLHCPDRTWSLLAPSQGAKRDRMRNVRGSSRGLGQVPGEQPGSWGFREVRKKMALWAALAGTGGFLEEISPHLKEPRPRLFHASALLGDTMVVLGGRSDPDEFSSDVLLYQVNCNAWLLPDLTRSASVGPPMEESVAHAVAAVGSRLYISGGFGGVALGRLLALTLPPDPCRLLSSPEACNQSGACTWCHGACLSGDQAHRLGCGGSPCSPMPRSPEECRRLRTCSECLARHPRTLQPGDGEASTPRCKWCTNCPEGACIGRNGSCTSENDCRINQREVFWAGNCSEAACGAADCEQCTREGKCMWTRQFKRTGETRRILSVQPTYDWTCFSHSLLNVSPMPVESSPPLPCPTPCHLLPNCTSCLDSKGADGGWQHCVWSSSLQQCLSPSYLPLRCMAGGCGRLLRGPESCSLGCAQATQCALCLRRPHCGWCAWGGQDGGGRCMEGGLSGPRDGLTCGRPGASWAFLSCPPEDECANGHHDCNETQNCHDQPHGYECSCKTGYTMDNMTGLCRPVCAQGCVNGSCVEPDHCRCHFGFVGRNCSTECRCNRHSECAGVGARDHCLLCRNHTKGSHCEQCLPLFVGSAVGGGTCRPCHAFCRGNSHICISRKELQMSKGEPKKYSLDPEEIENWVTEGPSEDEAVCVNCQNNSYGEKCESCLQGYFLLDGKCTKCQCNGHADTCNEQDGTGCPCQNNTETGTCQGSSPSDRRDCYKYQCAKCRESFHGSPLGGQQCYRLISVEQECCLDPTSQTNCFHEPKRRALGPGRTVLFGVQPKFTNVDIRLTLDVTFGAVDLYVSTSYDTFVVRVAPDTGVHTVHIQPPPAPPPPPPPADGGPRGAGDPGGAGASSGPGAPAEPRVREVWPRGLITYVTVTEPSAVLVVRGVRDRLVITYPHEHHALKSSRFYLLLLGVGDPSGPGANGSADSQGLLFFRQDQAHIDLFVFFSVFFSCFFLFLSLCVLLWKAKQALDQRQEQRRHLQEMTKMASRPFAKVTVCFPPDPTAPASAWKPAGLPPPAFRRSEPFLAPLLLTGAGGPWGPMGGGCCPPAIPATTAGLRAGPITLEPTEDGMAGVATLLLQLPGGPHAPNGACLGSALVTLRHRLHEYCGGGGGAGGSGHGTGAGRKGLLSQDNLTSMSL
# UniProt P55082: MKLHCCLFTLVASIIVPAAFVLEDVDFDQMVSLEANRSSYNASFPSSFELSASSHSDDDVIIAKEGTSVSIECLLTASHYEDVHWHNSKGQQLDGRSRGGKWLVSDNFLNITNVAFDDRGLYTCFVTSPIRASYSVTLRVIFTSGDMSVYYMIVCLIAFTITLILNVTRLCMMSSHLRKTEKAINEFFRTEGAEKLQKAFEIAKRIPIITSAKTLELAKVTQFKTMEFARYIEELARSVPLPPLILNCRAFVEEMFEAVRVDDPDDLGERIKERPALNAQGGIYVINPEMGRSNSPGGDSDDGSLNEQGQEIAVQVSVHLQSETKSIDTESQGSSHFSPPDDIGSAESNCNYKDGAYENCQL
# UniProt Q02078: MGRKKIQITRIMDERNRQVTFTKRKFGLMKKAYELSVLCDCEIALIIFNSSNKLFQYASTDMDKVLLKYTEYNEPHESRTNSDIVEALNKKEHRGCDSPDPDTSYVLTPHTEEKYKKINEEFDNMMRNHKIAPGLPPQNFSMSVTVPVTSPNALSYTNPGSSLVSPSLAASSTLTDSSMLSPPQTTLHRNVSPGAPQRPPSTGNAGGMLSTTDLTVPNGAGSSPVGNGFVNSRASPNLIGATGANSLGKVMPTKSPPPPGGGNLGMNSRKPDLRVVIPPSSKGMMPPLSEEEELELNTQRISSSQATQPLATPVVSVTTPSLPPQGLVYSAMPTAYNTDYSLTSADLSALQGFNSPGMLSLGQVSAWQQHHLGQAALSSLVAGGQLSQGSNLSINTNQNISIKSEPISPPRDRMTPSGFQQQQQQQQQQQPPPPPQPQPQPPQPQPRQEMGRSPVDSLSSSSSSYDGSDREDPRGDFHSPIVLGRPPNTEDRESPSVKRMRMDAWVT
# UniProt Q96PE7: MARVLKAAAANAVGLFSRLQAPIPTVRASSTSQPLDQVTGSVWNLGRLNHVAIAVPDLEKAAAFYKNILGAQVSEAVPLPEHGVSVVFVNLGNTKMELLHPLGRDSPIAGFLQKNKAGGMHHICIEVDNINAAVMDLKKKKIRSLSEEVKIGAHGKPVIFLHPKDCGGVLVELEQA
# UniProt O95402: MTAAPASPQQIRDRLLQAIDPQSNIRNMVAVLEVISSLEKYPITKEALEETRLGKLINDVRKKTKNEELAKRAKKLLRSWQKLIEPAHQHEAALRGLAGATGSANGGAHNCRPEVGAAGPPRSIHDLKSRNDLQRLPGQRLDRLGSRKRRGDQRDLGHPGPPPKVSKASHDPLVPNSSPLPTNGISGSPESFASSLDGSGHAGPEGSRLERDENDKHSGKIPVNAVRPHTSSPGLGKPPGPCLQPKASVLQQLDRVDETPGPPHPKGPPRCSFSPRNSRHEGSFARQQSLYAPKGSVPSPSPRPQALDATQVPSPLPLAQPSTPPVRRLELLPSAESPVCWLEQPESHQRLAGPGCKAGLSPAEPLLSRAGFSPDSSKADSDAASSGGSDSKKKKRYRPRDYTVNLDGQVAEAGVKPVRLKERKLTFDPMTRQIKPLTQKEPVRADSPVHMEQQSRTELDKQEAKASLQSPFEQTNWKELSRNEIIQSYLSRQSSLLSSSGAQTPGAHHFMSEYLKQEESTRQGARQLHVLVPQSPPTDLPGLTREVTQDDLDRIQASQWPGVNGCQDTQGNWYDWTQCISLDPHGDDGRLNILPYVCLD
# UniProt Q9Y6X3: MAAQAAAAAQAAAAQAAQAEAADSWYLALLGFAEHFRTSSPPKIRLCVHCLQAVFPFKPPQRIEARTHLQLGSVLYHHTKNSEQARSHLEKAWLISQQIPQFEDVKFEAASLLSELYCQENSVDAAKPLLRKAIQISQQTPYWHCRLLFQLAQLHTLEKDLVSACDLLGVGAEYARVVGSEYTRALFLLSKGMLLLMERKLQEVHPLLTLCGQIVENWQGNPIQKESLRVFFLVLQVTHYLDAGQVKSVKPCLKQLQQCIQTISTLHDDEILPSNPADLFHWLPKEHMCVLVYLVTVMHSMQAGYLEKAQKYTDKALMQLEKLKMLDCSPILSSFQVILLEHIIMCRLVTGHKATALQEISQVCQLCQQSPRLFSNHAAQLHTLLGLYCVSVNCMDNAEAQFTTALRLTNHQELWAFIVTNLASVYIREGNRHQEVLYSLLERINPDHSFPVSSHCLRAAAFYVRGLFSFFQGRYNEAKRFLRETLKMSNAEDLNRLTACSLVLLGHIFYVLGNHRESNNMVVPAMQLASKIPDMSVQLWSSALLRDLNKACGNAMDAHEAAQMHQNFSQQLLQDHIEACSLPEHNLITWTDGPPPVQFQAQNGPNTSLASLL
# UniProt Q6UX53: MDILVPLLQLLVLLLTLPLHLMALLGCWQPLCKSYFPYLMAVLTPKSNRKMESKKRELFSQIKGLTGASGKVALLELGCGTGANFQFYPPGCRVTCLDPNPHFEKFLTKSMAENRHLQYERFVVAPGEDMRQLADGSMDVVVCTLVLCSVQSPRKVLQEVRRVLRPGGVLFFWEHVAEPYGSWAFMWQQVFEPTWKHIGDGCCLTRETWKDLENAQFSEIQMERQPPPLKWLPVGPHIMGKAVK
# UniProt Q9NWA0: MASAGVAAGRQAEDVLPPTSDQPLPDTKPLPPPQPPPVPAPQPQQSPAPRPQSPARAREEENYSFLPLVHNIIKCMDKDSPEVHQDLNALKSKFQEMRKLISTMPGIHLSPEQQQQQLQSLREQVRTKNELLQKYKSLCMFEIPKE
# UniProt Q9H7H0: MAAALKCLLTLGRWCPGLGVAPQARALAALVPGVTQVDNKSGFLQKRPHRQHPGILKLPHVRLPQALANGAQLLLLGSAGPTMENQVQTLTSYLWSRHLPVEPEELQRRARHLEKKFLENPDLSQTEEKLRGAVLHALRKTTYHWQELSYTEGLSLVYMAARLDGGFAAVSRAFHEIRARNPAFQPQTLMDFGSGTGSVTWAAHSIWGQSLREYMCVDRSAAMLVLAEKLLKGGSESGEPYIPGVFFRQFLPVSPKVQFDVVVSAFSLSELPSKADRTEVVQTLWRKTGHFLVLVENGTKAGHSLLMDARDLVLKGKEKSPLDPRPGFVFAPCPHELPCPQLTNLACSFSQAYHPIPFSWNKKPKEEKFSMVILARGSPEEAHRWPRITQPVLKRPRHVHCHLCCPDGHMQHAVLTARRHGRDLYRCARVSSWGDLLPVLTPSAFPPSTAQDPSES
# UniProt Q9UBB5, whole entry, looked up: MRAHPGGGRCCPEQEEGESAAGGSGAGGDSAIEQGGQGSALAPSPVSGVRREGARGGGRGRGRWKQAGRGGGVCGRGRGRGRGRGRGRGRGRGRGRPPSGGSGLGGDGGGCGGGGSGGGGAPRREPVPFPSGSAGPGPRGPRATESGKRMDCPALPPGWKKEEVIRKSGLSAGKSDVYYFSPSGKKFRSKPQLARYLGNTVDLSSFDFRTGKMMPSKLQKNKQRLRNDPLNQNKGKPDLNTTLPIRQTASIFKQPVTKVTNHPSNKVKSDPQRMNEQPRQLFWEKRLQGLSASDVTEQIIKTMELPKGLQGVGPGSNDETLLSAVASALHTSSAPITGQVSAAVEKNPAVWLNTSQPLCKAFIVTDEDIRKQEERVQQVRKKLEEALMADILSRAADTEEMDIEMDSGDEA
# What was measured:
# Assay in all cases: log2 fold change, soluble protein after heating vs DMSO (PISA); higher = thermal stabilisation; K562 cells, 10 uM, 30 min; active = over 0.2 and 3.5 SD of the protein, either way, in both replicates (recomputed)
# ibrutinib = compound: C=CC(=O)N1CCC[C@@H](n2nc(-c3ccc(Oc4ccccc4)cc3)c3c(N)ncnc32)C1 [ibrutinib]
# In short: (§1)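 K562 cells at 2×10^6 cells/mL were exposed to 10 μM compound for 30 min, then aliquots were heated for 3 min across 48°C-58°C, pooled, and extracted in PBS containing 0.5% NP-40 at 4°C. The supernatant after 21,000xg for 90 min was taken as soluble protein and measured by TMTpro 16plex LC-MS/MS with channel sums equalised. Thermal stability is reported relative to control samples, with values from duplicates. Fold changes are given on a log2 scale.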
# [1] = compound: CC(C)C1=C2N=C(C=C(N2N=C1)NCC3=CC=CC=C3)NCCCCCCN
# In short: as §1
# [2] = compound: CC1=C(C2=C(C=C1)C(=O)C3=CC=CC=C3N2CCCN)C
# In short: as §1
# [3] = compound: CC(C)(O)CC(=O)NCCn1ccc2ncnc(Nc3ccc(Oc4cccc(C(F)(F)F)c4)c(Cl)c3)c21
# In short: as §1
# IRAK-1-4 Inhibitor I = compound: C1COCCN1CCN2C3=CC=CC=C3N=C2NC(=O)C4=CC(=CC=C4)[N+](=O)[O-] [IRAK-1-4 Inhibitor I]
# In short: as §1
# ralimetinib = compound: CC(C)(C)Cn1c(N)nc2ccc(-c3[nH]c(C(C)(C)C)nc3-c3ccc(F)cc3)nc21 [ralimetinib]
# In short: as §1
# [4] = compound: CC(C)C[C@@H](C=O)NC(=O)[C@H](CC(C)C)NC(=O)[C@H](CC(C)C)NC(=O)OCc1ccccc1
# In short: as §1
# pinometostat = compound: CC(C)N(C[C@H]1O[C@@H](n2cnc3c(N)ncnc32)[C@H](O)[C@@H]1O)[C@H]1C[C@@H](CCc2nc3cc(C(C)(C)C)ccc3[nH]2)C1 [pinometostat]
# In short: as §1
# [5] = compound: CC1=C(C(CC(=O)N1)C2=CC=C(C=C2)C(F)(F)F)C(=O)NC3=C(C=C4C(=C3)C=NN4)F
# In short: as §1
# [6] = compound: CC(=O)c1cnc2ccc(-c3cc(Cl)c(O)c(Cl)c3)nc2c1N[C@H]1CC[C@H](CN(C)C)CC1
# In short: as §1
target,measurement,setting,value
MEGF9 (UniProt Q9H1U4),log2 fold change,ibrutinib,inactive: 0.113
same,log2 fold change,[1],inactive: 0.243
same,log2 fold change,[2],inactive: 0.043
MED13L (UniProt Q71F56),log2 fold change,[3],inactive: -0.052
same,log2 fold change,[1],inactive: -0.046
MBTPS2 (UniProt O43462),log2 fold change,IRAK-1-4 Inhibitor I,inactive: -0.166
same,log2 fold change,ralimetinib,inactive: -0.049
same,log2 fold change,[3],inactive: 0.034
same,log2 fold change,[1],inactive: -0.037
same,log2 fold change,[4],inactive: 0.073
same,log2 fold change,pinometostat,inactive: 0.047
same,log2 fold change,[5],inactive: 0
same,log2 fold change,[2],inactive: 0.065
MATK isoform 2 (UniProt P42679),log2 fold change,[5],inactive: -0.131
MED11 (UniProt Q9P086),log2 fold change,IRAK-1-4 Inhibitor I,inactive: -0.063
same,log2 fold change,[1],inactive: -0.002
same,log2 fold change,pinometostat,inactive: -0.115
same,log2 fold change,[2],inactive: 0.235
MEGF8 (UniProt Q7Z7M0),log2 fold change,IRAK-1-4 Inhibitor I,inactive: 0.037
same,log2 fold change,[6],inactive: -0.332
same,log2 fold change,pinometostat,inactive: -0.12
same,log2 fold change,[5],inactive: 0.003
same,log2 fold change,[2],inactive: 0.532
MEX3B (UniProt Q6ZN04),log2 fold change,ibrutinib,inactive: 0.046
same,log2 fold change,ralimetinib,inactive: -0.072
same,log2 fold change,[1],inactive: 0.076
same,log2 fold change,[4],inactive: 0.251
same,log2 fold change,[5],inactive: 0.06
same,log2 fold change,[2],inactive: 0.118
MFAP3 (UniProt P55082),log2 fold change,ibrutinib,inactive: -0.027
same,log2 fold change,[6],inactive: -0.067
same,log2 fold change,[3],inactive: -0.165
same,log2 fold change,[2],inactive: -0.111
MFSD1 isoform 6 (UniProt Q9H3U5),log2 fold change,ibrutinib,inactive: 0.017
same,log2 fold change,[6],inactive: 0.025
same,log2 fold change,ralimetinib,inactive: -0.172
same,log2 fold change,[3],inactive: 0.055
same,log2 fold change,[1],active: -0.427
same,log2 fold change,[4],inactive: 0.043
same,log2 fold change,[2],inactive: 0.08
MEF2A isoform 2 (UniProt Q02078),log2 fold change,IRAK-1-4 Inhibitor I,inactive: -0.004
same,log2 fold change,pinometostat,inactive: -0.031
same,log2 fold change,[5],inactive: 0.141
METTL9 (UniProt Q9H1A3),log2 fold change,ibrutinib,inactive: -0.031
same,log2 fold change,[6],inactive: 0.16
same,log2 fold change,ralimetinib,inactive: -0.022
same,log2 fold change,[1],inactive: -0.01
same,log2 fold change,[4],inactive: 0.11
same,log2 fold change,[2],inactive: 0.082
MFSD9 (UniProt Q8NBP5),log2 fold change,[1],inactive: 0.089
same,log2 fold change,[5],inactive: 0.022
MED27 (UniProt Q6P2C8),log2 fold change,ibrutinib,inactive: -0.421
same,log2 fold change,[6],inactive: -0.271
same,log2 fold change,[3],inactive: -0.077
same,log2 fold change,[1],inactive: 0.117
same,log2 fold change,[5],inactive: 0.123
MEGF10 (UniProt Q96KG7),log2 fold change,[2],inactive: -0.176
MED21 (UniProt Q13503),log2 fold change,[6],inactive: -0.046
same,log2 fold change,ralimetinib,inactive: -0.023
same,log2 fold change,[4],inactive: -0.272
same,log2 fold change,[5],inactive: -0.003
same,log2 fold change,[2],inactive: 0.194
MCEE (UniProt Q96PE7),log2 fold change,ibrutinib,inactive: 0.021
same,log2 fold change,[6],inactive: 0.05
same,log2 fold change,ralimetinib,inactive: 0.083
same,log2 fold change,[3],inactive: -0.004
same,log2 fold change,[1],inactive: 0.029
same,log2 fold change,[4],inactive: 0.026
same,log2 fold change,[5],inactive: 0.024
same,log2 fold change,[2],inactive: 0.085
MDK (UniProt P21741),log2 fold change,ibrutinib,inactive: 0.012
same,log2 fold change,[6],inactive: 0.212
same,log2 fold change,[1],inactive: 0.242
same,log2 fold change,[5],inactive: -0.067
same,log2 fold change,[2],inactive: -0.481
MED26 (UniProt O95402),log2 fold change,IRAK-1-4 Inhibitor I,inactive: 0.017
same,log2 fold change,[6],inactive: 0.062
same,log2 fold change,ralimetinib,inactive: 0.084
same,log2 fold change,[4],inactive: -0.056
same,log2 fold change,pinometostat,inactive: 0.123
MAST2 (UniProt Q6P0Q8),log2 fold change,ralimetinib,inactive: -0.188
same,log2 fold change,[4],inactive: 0.074
MAU2 (UniProt Q9Y6X3),log2 fold change,ralimetinib,inactive: -0.052
same,log2 fold change,[1],inactive: -0.264
same,log2 fold change,[4],inactive: -0.12
same,log2 fold change,[2],inactive: 0.126
MEX3C (UniProt Q5U5Q3),log2 fold change,ralimetinib,inactive: 0.081
same,log2 fold change,[4],inactive: 0.015
MED28 (UniProt Q9H204),log2 fold change,ibrutinib,inactive: -0.111
same,log2 fold change,[6],inactive: -0.109
same,log2 fold change,ralimetinib,inactive: -0.017
same,log2 fold change,[1],inactive: 0.037
same,log2 fold change,[4],inactive: -0.065
same,log2 fold change,[5],inactive: 0.052
same,log2 fold change,[2],inactive: 0.138
MEF2A (UniProt Q02078),log2 fold change,[3],inactive: -0.072
same,log2 fold change,[1],inactive: 0.043
same,log2 fold change,[5],inactive: -0.057
same,log2 fold change,[2],inactive: 0.005
MED29 (UniProt Q9NX70),log2 fold change,[6],inactive: -0.215
same,log2 fold change,[1],inactive: -0.038
MFSD12 isoform 3 (UniProt Q6NUT3),log2 fold change,[6],inactive: -0.002
same,log2 fold change,[1],active: -0.474
same,log2 fold change,[2],inactive: -0.066
METTL7B (UniProt Q6UX53),log2 fold change,[6],inactive: 0.049
same,log2 fold change,[3],inactive: 0.011
same,log2 fold change,[1],inactive: 0.042
MFSD6 (UniProt Q6ZSS7),log2 fold change,ibrutinib,inactive: -0.11
same,log2 fold change,[6],inactive: -0.106
same,log2 fold change,[3],inactive: -0.043
same,log2 fold change,[1],inactive: 0.141
same,log2 fold change,[5],inactive: 0.018
MFSD14B (UniProt Q5SR56),log2 fold change,IRAK-1-4 Inhibitor I,inactive: 0.012
same,log2 fold change,[6],inactive: -0.022
same,log2 fold change,[3],inactive: -0.003
same,log2 fold change,[1],inactive: -0.006
same,log2 fold change,pinometostat,inactive: -0.316
same,log2 fold change,[5],inactive: 0.111
same,log2 fold change,[2],inactive: -0.051
MED9 (UniProt Q9NWA0),log2 fold change,IRAK-1-4 Inhibitor I,inactive: -0.027
same,log2 fold change,ralimetinib,inactive: -0.06
same,log2 fold change,[4],inactive: -0.028
same,log2 fold change,pinometostat,inactive: 0.008
same,log2 fold change,[5],inactive: 0.033
METTL15 (UniProt A6NJ78),log2 fold change,ibrutinib,inactive: 0.049
same,log2 fold change,[6],inactive: -0.1
same,log2 fold change,[3],inactive: -0.636
same,log2 fold change,[2],inactive: 0.203
MBNL2 (UniProt Q5VZF2),log2 fold change,IRAK-1-4 Inhibitor I,inactive: 0.095
same,log2 fold change,[6],inactive: 0.047
same,log2 fold change,ralimetinib,inactive: 0.027
same,log2 fold change,[1],inactive: -0.02
same,log2 fold change,[4],inactive: 0.099
same,log2 fold change,pinometostat,inactive: -0.029
MCOLN3 (UniProt Q8TDD5),log2 fold change,ibrutinib,inactive: -0.17
same,log2 fold change,ralimetinib,inactive: -0.057
same,log2 fold change,[1],inactive: 0.019
same,log2 fold change,[4],inactive: 0.029
same,log2 fold change,[2],inactive: 0.08
METTL17 isoform 3 (UniProt Q9H7H0),log2 fold change,[6],inactive: 0.007
same,log2 fold change,ralimetinib,inactive: 0.124
same,log2 fold change,[4],inactive: 0.025
MBD2 (UniProt Q9UBB5),log2 fold change,ibrutinib,inactive: -0.036
same,log2 fold change,[6],inactive: -0.201
same,log2 fold change,ralimetinib,inactive: 0.076
same,log2 fold change,[3],inactive: 0.005
same,log2 fold change,[1],inactive: -0.144
same,log2 fold change,[4],inactive: -0.154
same,log2 fold change,[5],inactive: -0.034
same,log2 fold change,[2],inactive: -0.155
METTL26 (UniProt Q96S19),log2 fold change,ibrutinib,inactive: -0.081
same,log2 fold change,[1],inactive: 0.067
same,log2 fold change,[5],inactive: -0.192
MED31 (UniProt Q9Y3C7),log2 fold change,IRAK-1-4 Inhibitor I,inactive: 0.003
same,log2 fold change,ralimetinib,inactive: -0.056
same,log2 fold change,[4],inactive: 0.069
same,log2 fold change,pinometostat,inactive: 0.041
same,log2 fold change,[5],inactive: -0.085

# Nothing new here: an excerpt of the list.
target,measurement,setting,value
MFAP3 (UniProt P55082),log2 fold change,[6],inactive: -0.067
same,log2 fold change,[3],inactive: -0.165
same,log2 fold change,[2],inactive: -0.111
MFSD1 isoform 6 (UniProt Q9H3U5),log2 fold change,ibrutinib,inactive: 0.017
same,log2 fold change,[6],inactive: 0.025
same,log2 fold change,ralimetinib,inactive: -0.172
same,log2 fold change,[3],inactive: 0.055

# Quoted at random: 2 records from the list
target,measurement,setting,value
MEGF9 (UniProt Q9H1U4),log2 fold change,[1],inactive: 0.243
MCEE (UniProt Q96PE7),log2 fold change,ibrutinib,inactive: 0.021

# 2 entries from above, bar-delimited.
target | measurement | setting | value
MEX3B (UniProt Q6ZN04) | log2 fold change | [2] | inactive: 0.118
MFAP3 (UniProt P55082) | log2 fold change | ibrutinib | inactive: -0.027

# From the supplement of paper PMC10849652
